For one molecule, IC50 and β-tryptase kapp results are on record in PMC9849758, “Chemically diverse activity-based probes with unexpected inhibitory mechanisms targeting trypsin-like serine proteases” (Frontiers in Chemistry, 2023).

Sequences of proteins named here, by UniProt entry; tags and fusion partners are left off. Residues count along the entry.
UniProt P08246, 30-267 limits assumed: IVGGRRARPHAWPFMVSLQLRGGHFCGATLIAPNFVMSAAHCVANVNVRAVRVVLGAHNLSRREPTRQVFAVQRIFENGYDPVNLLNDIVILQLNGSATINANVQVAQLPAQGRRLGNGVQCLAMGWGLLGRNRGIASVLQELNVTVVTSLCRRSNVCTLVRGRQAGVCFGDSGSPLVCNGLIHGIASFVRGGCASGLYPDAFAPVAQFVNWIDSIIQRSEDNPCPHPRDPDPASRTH
UniProt P20231, 31-275 limits assumed: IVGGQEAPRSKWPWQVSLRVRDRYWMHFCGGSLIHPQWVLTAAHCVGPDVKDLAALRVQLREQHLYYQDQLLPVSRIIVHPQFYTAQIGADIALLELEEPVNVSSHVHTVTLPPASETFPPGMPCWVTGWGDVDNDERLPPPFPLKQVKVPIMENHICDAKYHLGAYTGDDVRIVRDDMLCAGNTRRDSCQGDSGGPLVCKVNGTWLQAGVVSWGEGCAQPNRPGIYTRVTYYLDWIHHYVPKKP
UniProt P35030, whole entry: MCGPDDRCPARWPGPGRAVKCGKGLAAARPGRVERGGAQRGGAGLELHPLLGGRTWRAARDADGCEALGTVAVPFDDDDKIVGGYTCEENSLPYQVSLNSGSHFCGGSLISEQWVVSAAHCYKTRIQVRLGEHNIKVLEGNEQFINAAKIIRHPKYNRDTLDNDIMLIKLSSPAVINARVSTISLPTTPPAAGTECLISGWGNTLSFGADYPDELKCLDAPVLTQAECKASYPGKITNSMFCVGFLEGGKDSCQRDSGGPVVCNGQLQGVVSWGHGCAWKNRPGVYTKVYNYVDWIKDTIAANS
UniProt P08311, 21-255 limits assumed: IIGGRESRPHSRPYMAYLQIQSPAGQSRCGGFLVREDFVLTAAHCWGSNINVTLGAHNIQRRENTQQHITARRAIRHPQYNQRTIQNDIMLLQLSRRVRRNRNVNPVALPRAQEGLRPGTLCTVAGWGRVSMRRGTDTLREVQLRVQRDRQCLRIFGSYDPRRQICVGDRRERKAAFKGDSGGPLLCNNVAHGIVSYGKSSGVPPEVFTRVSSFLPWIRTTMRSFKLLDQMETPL

Common to all, as to type: biochemical
In experiment [1] the target is uPA (recombinant urokinase plasminogen activator) (Homo sapiens, UniProt P00749). As to the kind of experiment: IC50 determination, spectrophotometric protease assay. Conditions: read-out: uPA IC50; alkyne probes; 15 min preincubation at 37°C; mean ± SD; tested form: TFA. The protocol:
(§1) The IC50 value is defined as the concentration of inhibitor required to reduce the enzyme activity to 50% after a 15 min preincubation with the enzyme at 37°C before the addition of the substrate. The IC50 values were determined using a spectrophotometric assay. All the experiments were conducted in duplicate. The readout consisted of evaluating the protease-mediated release of the chromophore para-nitroaniline (pNA) or fluorophore 7-amino-4-methyl coumarin (AMC) moieties from the respective substrates. Enzymatic activity was measured for 30 min at 37°C. All compounds were initially screened at three concentrations (10, 1, and .1 μM) to estimate the range of the IC50 value. Those which were able to reduce protease activity by at least 50% at a concentration of 10 μM were submitted to an exact IC50 determination. […] A third independent experiment was performed when the standard deviation of the two independent experiments was higher than […]. IC50 values were obtained by fitting the data with the four-parameter logistics equation using GraphPad Prism 9.
(§2) The conditions for each protease are described as follows, the concentration of substrate used was at the corresponding Km.
(§3) Trypsin-3 (recombinant trypsin-3, R&D) and fluorogenic substrate tosyl-Gly-Pro-Arg-AMC (Km = 22.5 μM) were used in Tris buffer (100 mM Tris, 1 mM CaCl2) at pH 8.0 (25°C). Tryptase (recombinant tryptase β-2, EnzoLife Sciences) and fluorogenic substrate Boc-Gln-Ala-Arg-AMC (Km = 250 μM) were used in Tris buffer (50 mM Tris, 120 mM NaCl, .1 mg/ml BSA, .1 mg/ml heparin) at pH 8.0 (25°C). Thrombin (recombinant thrombin, R&D) and fluorogenic substrate Boc-Val-Pro-Arg-AMC (Km = 15 μM) were used in TRIS buffer (50 mM Tris HCl, 50 mM Tris base, 10 mM CaCl2, 150 mM NaCl) at pH 8.3 (25°C). uPA (recombinant urokinase plasminogen activator, HYPHEN BioMed) and chromogenic substrate pyro-Glu-Gly-Arg-pNA (Km = 80 μM) were used in HEPES buffer (50 mM HEPES) at pH 8.1 (25°C). Cathepsin G (cathepsin G human neutrophil, Sigma-Aldrich) and fluorogenic substrate Suc-Ala-Ala-Pro-Phe-AMC (Km = 130 μM) were used in Tris buffer (50 mM Tris, 120 mM NaCl) at pH 8.0 (25°C). TLCK-treated pancreatic bovine chymotrypsin (Sigma-Aldrich) and fluorescent substrate Suc-Ala-Ala-Pro-Phe-AMC (Km = 58 μM) were used in Tris buffer (50 mM Tris, 20 mM CaCl2) at pH 8.3 (25°C). Neutrophil Elastase (recombinant neutrophil elastase, Enzo LifeSciences) and fluorogenic substrate Suc-Ala-Ala-Pro-Val-AMC (Km = 500 μM) were used in Tris buffer (50 mM Tris, 120 mM NaCl) at pH 8.0 (25°C).

The target in experiment [2] is Neutrophil Elastase (recombinant neutrophil elastase) (Homo sapiens, UniProt P08246). The description is as above. The following applies: read-out: NE IC50; alkyne probes; 15 min preincubation at 37°C; mean ± SD; tested form: TFA. The protocol: as §1, §2, §3
Experiment [3] addresses β-tryptase (recombinant tryptase β-2) (Homo sapiens, UniProt P20231). The experiment is described as above. The following applies: read-out: β-tryptase IC50; alkyne probes; 15 min preincubation at 37°C; mean ± SD; tested form: TFA. The protocol:
as §1, §2, §3

Experiment [4] concerns the target Thrombin (recombinant thrombin) (Homo sapiens, UniProt P00734). The description is as above. The following applies: read-out: Thrombin IC50; alkyne probes; 15 min preincubation at 37°C; mean ± SD; tested form: TFA. The protocol: as §1, §2, §3
For experiment [5], the target named is TLCK-treated pancreatic bovine chymotrypsin (Bos taurus, UniProt P00766). The experiment is described as above. The following applies: read-out: ChTryp IC50; alkyne probes; 15 min preincubation at 37°C; mean ± SD; tested form: TFA. The protocol: as §1, §2, §3
The target of experiment [6] is Trypsin-3 (recombinant trypsin-3) (Homo sapiens, UniProt P35030). The description is as above. The following applies: read-out: Trypsin-3 IC50; alkyne probes; 15 min preincubation at 37°C; mean ± SD; tested form: TFA. The protocol: as §1, §2, §3
In experiment [7] the target is Cathepsin G (cathepsin G human neutrophil) (Homo sapiens, UniProt P08311). The experiment is described as above. Conditions: read-out: CatG IC50; alkyne probes; 15 min preincubation at 37°C; mean ± SD; tested form: TFA. The protocol:
as §1, §2, §3

The next experiment has as its target β-tryptase (Homo sapiens, UniProt P20231). As to the kind of experiment: Kinetic progress curves (kapp, K1, KI*, mechanism). The following applies: apparent second-order rate constant from progress curves; mean ± SD; tested form: TFA. The protocol: Because the compounds described in this paper were previously described as irreversible inhibitors, the IC50 value is inversely correlated with the second-order rate constant of inactivation. For a simple pseudo-first-order inactivation process, the activity after incubation with inhibitor (vi) varies with the inhibitor concentration (i), as described in the following equation: vi=v0·e^−kit where v0 is the activity in the absence of an inhibitor, k is the second-order rate constant of inactivation, and t is the time. The inactivation rate constant was determined from the time course of inhibition.
Kinetic assays were performed in the following manner. The inhibitor was mixed with the substrate, and the buffer solution with the enzyme was added at the time zero. The progress curves show the release of pNA or AMC as a function of time. Initially, no inhibitor is bound to the enzyme, and the tangent to the progress curve (dA/dt) is proportional to the free enzyme concentration. The free enzyme concentration decreases over time due to inhibitor binding kinetics, as described above. Progress curves were recorded in pseudo-first-order conditions ([I]0>>[E]0) and with less than 10% conversion of the substrate during the entire time course. In these conditions, dA/dt decreases exponentially with time. The progress curves were fitted with the integrated rate equation with GraFit7 to yield a value for kobs, a pseudo-first-order rate constant. At=Ao+vs∙t+vi−vs∙1−e^−kobs∙t/kobs where At is the absorbance at time t, A0 is the absorbance at time zero, vi is the initial rate and vs is the velocity at the steady-state.
The apparent second-order rate constant (kapp) was calculated from the slope of the linear part of the plot of kobs vs. the inhibitor concentration ([I]0). […]

The structures given here were assigned with low confidence; some may be wrong.

For `C#CCCCC(=O)N1CCCC1C(=O)NC(CCCCN)P(=O)(Oc1ccccc1)Oc1ccccc1` (centres unmarked), the half-inhibitory concentration (IC50) – broadly, the concentration that gives 50% inhibition – in experiment [1] is 2.52 µM; in experiment [2], above 10 µM; in experiment [3], 2.98 µM; in experiment [4], 0.18 µM; in experiment [5], above 10 µM; in experiment [6] it was 0.09 µM. Besides, the IC50 in experiment [7] is above 10 µM. Moreover, the β-tryptase kapp at β-tryptase was 136 ± 3 M⁻¹ s⁻¹.
